Reference: paper doi:10.1101/2022.03.26.485938
These are yes or no findings as the source states them, for the method shown. For some of these results: In cells and extracts the contact can be indirect. Some binding calls cover weakened binding; strength is not graded here. For some of these results: Sequences can lack the tags named with a protein.

Protein sequences, listed by entry. Tags and fused reporters are not part of them.
UniProt Q9LU77: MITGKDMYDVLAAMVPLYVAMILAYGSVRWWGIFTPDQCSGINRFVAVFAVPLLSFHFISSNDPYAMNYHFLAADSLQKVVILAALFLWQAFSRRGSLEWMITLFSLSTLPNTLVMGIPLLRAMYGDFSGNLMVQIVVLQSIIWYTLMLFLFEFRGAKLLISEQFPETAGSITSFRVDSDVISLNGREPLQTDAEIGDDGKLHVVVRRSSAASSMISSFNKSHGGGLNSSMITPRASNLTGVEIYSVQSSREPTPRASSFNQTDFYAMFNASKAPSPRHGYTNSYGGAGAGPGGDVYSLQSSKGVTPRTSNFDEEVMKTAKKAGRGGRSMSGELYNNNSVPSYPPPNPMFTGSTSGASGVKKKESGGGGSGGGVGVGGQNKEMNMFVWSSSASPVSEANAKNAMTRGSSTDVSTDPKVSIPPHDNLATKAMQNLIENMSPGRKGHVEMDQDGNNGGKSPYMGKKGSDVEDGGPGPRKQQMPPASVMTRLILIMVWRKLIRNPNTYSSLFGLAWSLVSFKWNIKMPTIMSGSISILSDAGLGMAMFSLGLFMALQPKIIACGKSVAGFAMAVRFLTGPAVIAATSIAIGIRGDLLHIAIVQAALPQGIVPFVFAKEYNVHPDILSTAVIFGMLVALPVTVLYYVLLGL
UniProt F4IHJ0: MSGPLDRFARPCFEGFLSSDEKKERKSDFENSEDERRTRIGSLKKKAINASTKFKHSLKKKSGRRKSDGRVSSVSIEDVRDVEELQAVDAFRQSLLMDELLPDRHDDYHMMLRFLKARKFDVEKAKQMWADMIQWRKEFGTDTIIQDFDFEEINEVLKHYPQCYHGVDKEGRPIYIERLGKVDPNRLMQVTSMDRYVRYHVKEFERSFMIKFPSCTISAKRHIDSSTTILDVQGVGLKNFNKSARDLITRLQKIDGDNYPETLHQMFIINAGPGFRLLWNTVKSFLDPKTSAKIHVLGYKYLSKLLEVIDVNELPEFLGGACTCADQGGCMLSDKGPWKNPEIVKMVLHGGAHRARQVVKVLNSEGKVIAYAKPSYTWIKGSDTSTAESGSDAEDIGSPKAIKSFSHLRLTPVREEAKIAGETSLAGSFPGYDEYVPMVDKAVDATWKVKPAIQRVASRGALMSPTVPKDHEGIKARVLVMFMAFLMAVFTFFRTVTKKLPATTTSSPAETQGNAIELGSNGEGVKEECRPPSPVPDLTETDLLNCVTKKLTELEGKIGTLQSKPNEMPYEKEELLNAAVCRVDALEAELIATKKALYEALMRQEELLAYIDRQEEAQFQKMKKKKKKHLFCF

Key:
[1] = target: PIN2-GFP (Arabidopsis thaliana) (UniProt Q9LU77); assay: proximity ligation
[2] = target: GST-SFH8 (Arabidopsis thaliana) (UniProt F4IHJ0); assay: native gel or EMSA
[3] = target: T1, Clathrin Light Chain (CLC2)-GFP (Arabidopsis thaliana) (UniProt O04209); assay: pull-down
T1 sequence: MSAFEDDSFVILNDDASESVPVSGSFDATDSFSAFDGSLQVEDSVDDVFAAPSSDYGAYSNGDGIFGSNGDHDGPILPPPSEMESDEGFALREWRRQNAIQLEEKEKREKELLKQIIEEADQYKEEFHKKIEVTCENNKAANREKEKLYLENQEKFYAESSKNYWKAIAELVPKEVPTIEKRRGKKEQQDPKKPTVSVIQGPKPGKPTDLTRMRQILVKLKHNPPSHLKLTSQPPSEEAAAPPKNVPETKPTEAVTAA

[4] = target: T2, plasma membrane intrinsic protein 2a (PIP2a), GFP-tagged (Arabidopsis thaliana) (UniProt P43286); assay: proximity ligation
T2 sequence: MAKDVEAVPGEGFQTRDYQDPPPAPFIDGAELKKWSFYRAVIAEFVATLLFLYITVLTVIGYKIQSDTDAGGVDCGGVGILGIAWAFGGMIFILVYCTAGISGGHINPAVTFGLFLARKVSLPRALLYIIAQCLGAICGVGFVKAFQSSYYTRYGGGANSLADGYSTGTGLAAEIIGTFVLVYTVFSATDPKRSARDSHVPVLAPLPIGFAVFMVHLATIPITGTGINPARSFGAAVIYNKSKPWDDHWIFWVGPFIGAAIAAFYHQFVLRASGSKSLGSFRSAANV

HF-SFH8 (from UniProt F4IHJ0 1-633) was tested. Which binding [1] did it give?
Its binding is “binds weakly”.

Which binding [2] does the source give for GST-SFH8 (from UniProt F4IHJ0 1-633) here?
The binding was “binds weakly”.

And the binding [3]?
Its binding is “no binding”.

For “SFH8, native, detected with α-SFH8 (from UniProt F4IHJ0 1-633)”, which binding [4] is on record?
The binding was “no binding”.
